Experimental data published in patent publication US4933104A, “Anthraquinone derivative as a dichroic dye for a liquid-crystal material, liquid-crystal material and an electrooptical device” (priority 1986, dated 1990).
Where no unit stands, none is given here, and values compare only within one read-out.

Assay: intensity of colour of symbols N in an electrooptical device (guest-host effect)
Conditions: Table 7; dichroic working body 20 μm thick

Structure (SMILES) | Intensity N = D1 - D11, known derivatives
CCCCCCCCc1ccc(-c2ccc(C(=O)Nc3ccc(NCCCC)c4c3C(=O)c3ccccc3C4=O)cc2)cc1 [No. 1, Table 6, reference compound] | 0.16
CCCCCCc1ccc(C(=O)Nc2ccc(OC(=O)c3ccc(CCCCCC)cc3)c3c2C(=O)c2c(NC(=O)c4ccc(CCCCCC)cc4)ccc(OC(=O)c4ccc(CCCCCC)cc4)c2C3=O)cc1 [No. 5, Table 6, reference compound] | 0.19
CCCCCC1CCC(c2ccc(C(=O)Nc3ccc(O)c4c3C(=O)c3c(NC(=O)c5ccc(C6CCC(CCCCC)CC6)cc5)ccc(OC(=O)c5ccc(C6CCC(CCCCC)CC6)cc5)c3C4=O)cc2)CC1 (stereo not shown) [No. 10, Table 6, reference compound] | 0.26
CCCCCc1ccc(-c2ccc(C(=O)Nc3ccc(NCCCC)c4c3C(=O)c3ccccc3C4=O)cc2)cc1 [No. 2, Table 6, reference compound] | 0.18
CCCCc1ccc(C(=O)Nc2ccc(OC(=O)c3ccc(CCCC)cc3)c3c2C(=O)c2c(NC(=O)c4ccc(CCCC)cc4)ccc(OC(=O)c4ccc(CCCC)cc4)c2C3=O)cc1 [No. 6, Table 6] | 0.21
CCCCc1ccc(C(=O)Nc2ccc(O)c3c2C(=O)c2c(NC(=O)c4ccc(CCCC)cc4)ccc(OC(=O)c4ccc(CCCC)cc4)c2C3=O)cc1 [No. 8, Table 6, reference compound] | 0.27
CCCCCCc1ccc(C(=O)Nc2ccc(O)c3c2C(=O)c2c(NC(=O)c4ccc(CCCCCC)cc4)ccc(O)c2C3=O)cc1 [No. 9, Table 6] | 0.26
CCCCCCc1ccc(C(=O)Nc2ccc(NC(=O)c3ccc(CCCCCC)cc3)c3c2C(=O)c2ccccc2C3=O)cc1 [No. 4, Table 6, reference compound] | 0.25
CCCCc1ccc(C(=O)Nc2ccc(O)c3c2C(=O)c2c(NC(=O)c4ccc(CCCC)cc4)ccc(O)c2C3=O)cc1 [No. 7, Table 6] | 0.27
CCCCc1ccc(C(=O)Nc2ccc(NC(=O)c3ccc(CCCC)cc3)c3c2C(=O)c2ccccc2C3=O)cc1 [No. 3, Table 6, reference compound] | 0.23
